Experimental findings from paper PMC8424372 (Journal of Pharmaceutical Analysis, 2020) are described below.

Molecules are shown by their SMILES.

Data set [1] is classed as in vivo, human.
A short description of data set [2]: Freeze-thaw stability in human plasma. It counts as in vitro ADME. To be noted: −80 °C/25 °C, mean ± SD, n = 5, %.

As for `C=C1CCC[C@]2(C)C=C3OC(=O)C(C)=C3C[C@@H]12` [Atractylenolide I, atractylenolide I], in data set [1] (after oral Gumiganghwal-tang tablets (9.6 g), humans), the “Shape of plasma concentration-time profile” value was “double peaks”. In addition, in data set [1] (male, human, plasma, po, 9.6 g), the AUC(0-inf) – broadly, total exposure, with the tail of the curve extrapolated – was found to be 33.4 ± 8.81 ng·h/mL; the Cmax (usually the highest concentration seen after dosing) was 3.26 ± 0.94 ng/mL; the Tmax (commonly the time from dosing to the highest level) stood at 6.21 ± 1.02 h; the Vd/F (as a rule, the volume of distribution divided by bioavailability) amounted to 33.3 ± 7.15 L. Further, the half-life – broadly, the time needed for the level to fall by half in the phase considered – in data set [1] (male, human, plasma, po, 9.6 g) was 22.1 ± 3.24 h. The “Freeze-thaw stability (3 cycles)” value in data set [2] (spiked conc. 2 ng/mL) is given as 97.53 ± 3.94%. Besides, the “Freeze-thaw stability (3 cycles)” value in data set [2] (spiked conc. 400 ng/mL) amounted to 99.32 ± 2.38%.
